Measured values from PubChem BioAssay AID624297 (National Center for Advancing Translational Sciences (NCATS), 2012).
Hit rate of the full screen: of about 340,000 compounds, about 6,200 (1.8%) were called active. This list was built around the results that the source calls inconclusive (neither active nor inactive); the mix of calls is not that of the screen. The call rests on the fitted dose curve; in most records, active means well fitted activation curve with a large enough effect; inconclusive means small, poorly fitted or top-dose-only effect; inactive means no such curve, though single readings can be large or run the other way. Potencies beside an inconclusive call are fits to weak or partial responses and may not hold up.

Test: A quantitative high throughput screen for small molecules that induce DNA re-replication in SW480 colon adenocarcinoma cells. Further: nearly all actives have a fitted effect of over 55% in size. On re-replication activation: % of control where 0% means no effect.
Conditions: Hoechst DNA content imaging, 48 h; re-replication activation: at 46.1 µM (top of the series) unless noted
Method in brief: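 DNA re-replication was detected as more nuclei of elevated Hoechst intensity after 48 hr exposure to compound (23 nL pinned per well of 250 cells).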
Potency means the concentration at half of the fitted maximal effect.

Compound | Potency | re-replication activation
O=C(Nc1ccc(Cl)cc1)C(Cl)C(=O)c1ccccc1 (centres undefined) | inconclusive: 29.1 µM [activator, single point] | 
NC(=O)N/N=C/c1ccccc1OC(=O)c1ccccc1Br |  | inactive: -9.42%
O=c1c2cc(NC(=S)NC3CCCCC3)ccc2nc2n1CCCCC2 |  | inactive: -8.6%
Cc1ccc(NC(=O)/C(=C/c2cccc(Br)c2)NC(=O)c2ccco2)cc1 | inconclusive: 0.651 µM [activator, full curve, poor fit] | 
Cc1cc(C2(c3ccc(O)c(C)c3)OC(=O)c3ccccc32)ccc1O | inconclusive: 11.6 µM [activator, single point] | 
Cc1sc2nc(-c3ccccn3)[nH]c(=O)c2c1-c1ccccc1 | active: 23.1 µM | 
Cc1ccc(-c2cc(C(=O)NCc3cccs3)no2)cc1 |  | inactive: 1.29%
CC[C@@H]1C=C(C(=O)O)[C@H](c2ccc(Cl)c(Cl)c2)N1S(=O)(=O)c1ccc(C)cc1 |  | inactive: 9.19%
CC1CCCCN1CCNC(=O)c1ccc2c(c1)N(Cc1ccccc1)C(=O)c1ccccc1S2(=O)=O (centres undefined) | inconclusive: 29.1 µM [activator, single point] | 
O=C(O)c1ccc(S(=O)(=O)c2ccc([N+](=O)[O-])cc2[N+](=O)[O-])cc1 | inconclusive: 29.1 µM [activator, single point] | 
COc1cc(Cl)ccc1NC(=S)N(CCCN1CCOCC1)Cc1cn(C)c2ccccc12 | inconclusive: 23.1 µM [activator, partial curve, poor fit] | 
O=C(/C=C/c1cccnc1)c1cccc(O)c1 | inconclusive: 6.51 µM [activator, single point] | 
FC(F)(F)c1nnc2c(Sc3ccccn3)nc3ccccc3n12 | inconclusive: 23.1 µM [activator, single point] | 
CCOc1ccc(Nc2nc(Cc3nnc(SCC(=O)c4ccc(C)c(C)c4)o3)cs2)cc1 | inconclusive: 29.1 µM [activator, partial curve, poor fit] | 
CCN1CCN(c2nc(Nc3ccc(OC)cc3)nc(N)c2[N+](=O)[O-])CC1 | inconclusive: 23.1 µM [activator, partial curve, poor fit] | 
COCCNC(=O)c1ccc(N2CCCCC2)c(NS(=O)(=O)c2ccc(C)cc2)c1 |  | inactive: 0.0136%
COc1ccc(CNC(=O)c2cc(C(=O)C3CC3)c[nH]2)cc1 | inconclusive: 23.1 µM [activator, single point] | 
c1ccc(Nc2nc(NCC3CCCO3)c3ccccc3n2)cc1 (centres undefined) | inconclusive: 29.1 µM [activator, single point] | 
Cn1c(/C=N/O)nc2ccccc21 |  | inactive: -8.68%
CC1C/C(=C\c2cccnc2)C(=O)/C(=C/c2cccnc2)C1 (centres undefined) | inconclusive: 0.651 µM [activator, full curve, poor fit] | 
COc1cccc(Cl)c1NC(=O)N1CCc2c([nH]c3ccccc23)C1C(F)(F)F (centres undefined) | inconclusive: 29.1 µM [activator, single point] | 
O=C(Nc1ccc(S(=O)(=O)N2CCCCC2)cc1)c1ccc(Cl)nc1 | inconclusive: 4.61 µM [activator, full curve, poor fit] | 
O=C(Nc1ccc(Oc2nnc(-c3ccccc3)c3ccccc23)cc1)c1ccccc1 |  | inactive: 12%
CCOC(=O)C1(Cc2ccc(OC)cc2)CCN(C(=O)c2cccc3nccnc23)CC1 |  | inactive: -2.52%
CCC1CCCCN1S(=O)(=O)c1ccc(-n2cnnn2)c(C)c1 (centres undefined) |  | inactive: -0.037%

Record cards (already shown):
CCN1CCN(c2nc(Nc3ccc(OC)cc3)nc(N)c2[N+](=O)[O-])CC1 reads Potency: inconclusive: 23.1 µM [activator, partial curve, poor fit]
CC1CCCCN1CCNC(=O)c1ccc2c(c1)N(Cc1ccccc1)C(=O)c1ccccc1S2(=O)=O (centres undefined) reads Potency: inconclusive: 29.1 µM [activator, single point]

Going on with the list.

Compound | Potency | re-replication activation
CCOC(=O)c1c(C)c(C)n(Cc2cccc(OC)c2OC)c1C | inconclusive: 29.1 µM [activator, partial curve, poor fit] | 
O=C(CCc1nnc2n(Cc3ccc(Cl)cc3)c(=O)c3ccccc3n12)NCCCN1CCOCC1 |  | inactive: 3.69%
CCOc1cccc(C(=O)NC(=S)Nc2ccc3c(c2)OCCO3)c1 |  | inactive: 1.58%
COc1ccc(CCNC(C(=O)Nc2cc(C)cc(C)c2)c2ccccc2)cc1 (centres undefined) | inconclusive: 13 µM [activator, partial curve, poor fit] | 
O=C(Cn1cnc(S(=O)(=O)N2CCCCC2)c1)NCc1ccco1 |  | inconclusive: -39.8% [activator]
CCOCCCNC(=O)C(NC(=O)c1ccccc1O)c1ccccc1 (centres undefined) | inconclusive: 29.1 µM [activator, partial curve, poor fit] | 
CCOC(=O)C1=C(O)C(=O)NC(c2ccccc2)=C(OCC)C1 | inconclusive: 0.82 µM [activator, partial curve, poor fit] | 
Cc1ccc(Nc2c(-c3ccc(N4CCOCC4)cc3)nc3ncccn23)cc1C | active: 23.1 µM | 
CCCn1c2ccccc2c2cnn(CC(=O)NC3CCCCC3)c(=O)c21 | inconclusive: 0.0046 µM [activator, full curve, poor fit] | 
N#CCc1nc(CSc2nc3ccccc3s2)cs1 | inconclusive: 18.4 µM [activator, partial curve, poor fit] | 
CN(C)CCCN1c2ccccc2Sc2ccccc21 | inconclusive: 23.1 µM [activator, single point] | 
Nc1c(C(=O)c2ccccc2)oc2ccccc12 | inconclusive: 29.1 µM [activator, single point] | 
COc1cc(/C=N/Nc2ccc([N+](=O)[O-])cn2)cc(OC)c1O | active: 16.4 µM | 
COc1cccc2c1C(=O)CC1C2CCC2CC(=O)CCC21C (centres undefined) |  | inactive: -16%
CCOc1ccc(N2C(=O)C3CCCN3C2=O)cc1 (centres undefined) | inconclusive: 18.4 µM [activator, single point] | 
c1ccc(-c2nnnc3ccccc23)cc1 |  | inactive: -9.69%
Cc1ccccc1NC(=O)/C=C1\SC(=O)NC1=O | inconclusive: 23.1 µM [activator, single point] | 
O=C(O)Cc1sc(NC2CCCCC2)nc1-c1ccc(Cl)cc1 |  | inactive: 20.7%
COc1ccc2ccccc2c1/C=N/NC(=S)Nc1cc(S(=O)(=O)N2CCOCC2)ccc1N1CCOCC1 | inconclusive: 29.1 µM [activator, partial curve, poor fit] | 
N#Cc1sc2nccc(Nc3ccccc3)c2c1N | active: 23.1 µM | 
COc1ccc(C(=O)CC(Nc2ccc([N+](=O)[O-])cc2)c2ccc(Cl)cc2)cc1 (centres undefined) | inconclusive: 18.4 µM [activator, single point] | 
COC(=O)c1c(NC(=S)Nc2ccccc2Cl)sc(C)c1C | inconclusive: 10.3 µM [activator, partial curve, poor fit] | 
Cc1sc2nc3c4ccccc4c(NCc4ccco4)nn3c(=O)c2c1C | active: 4.61 µM | 
Cc1nnc(N/N=C/c2cccc(C(F)(F)F)c2)n1N |  | inactive: 21.7%
CCOC(=O)C1C(=O)N(C(=O)c2cncc(Br)c2)CC1c1ccccc1 (centres undefined) |  | inactive: 0.341%

Compound | Potency | re-replication activation
Cc1ccc(/C=N/NC(=O)C2COc3ccccc3O2)s1 (centres undefined) | active: 2.82 µM | 
Cc1ccccc1Nc1nnc(SCc2cc(=O)n3ccsc3n2)s1 |  | inactive: -3.02%
COc1ccc(-c2csc3ncnc(Cl)c23)cc1 | inconclusive: 7.31 µM [activator, partial curve, poor fit] | 
CCc1ccc(C(C(=O)NCc2ccc(F)cc2)N(C(=O)c2csnn2)C2CC2)cc1 (centres undefined) |  | inactive: 4.38%
O=C(COC(=O)C1CC(=O)N(Cc2ccco2)C1)Nc1nc(-c2ccc(F)cc2)cs1 (centres undefined) | inconclusive: 29.1 µM [activator, single point] | 
Cc1ccc(S(=O)(=O)/N=C(\N)Nc2nc(C)c3cc(C)ccc3n2)cc1 |  | inactive: 12.4%
CC(C)c1ccc(OCC(=O)NNC(=O)c2cnccn2)cc1 |  | inactive: -5.06%
COCCNC(=O)C(=O)N/N=C(\C)CC(=O)Nc1cccc(C(F)(F)F)c1 |  | inactive: -9.44%
Cc1ccc(C(C)NC(=O)c2ccncc2)c(C)c1 (centres undefined) | inconclusive: 23.1 µM [activator, single point] | 
CC(=O)Nc1ccc(S(=O)(=O)NCc2cccnc2)cc1 | inconclusive: 32.6 µM [activator, partial curve, poor fit] | 
CCOC(=O)C1(CCOc2ccccc2)CCN(Cc2cccc(-n3cccn3)c2)CC1 |  | inactive: 7.52%
O=S(=O)(Nc1cccnc1)c1cc(Cl)ccc1Cl | inconclusive: 29.1 µM [activator, single point] | 
CC(=O)c1ccc(Oc2cc(C)nc(N3CCOCC3)n2)cc1 |  | inactive: 2.86%
CN(CC(=O)NC1CCCCCC1)S(=O)(=O)c1ccc(Br)cc1 |  | inactive: 16.2%
CCS(=O)(=O)c1ccc(-c2cccc(NC(=O)COc3ccccc3)c2)nn1 | inconclusive: 2.06 µM [activator, full curve, poor fit] | 
CCOc1ccc(NC(=O)CN(C)C(=O)c2ccccc2OCc2cccc(C)c2)cc1OCC | inconclusive: 0.146 µM [activator, full curve, poor fit] | 
CSc1ncccc1C(=O)OCC(=O)c1ccccc1 |  | inactive: 0.667%
COc1cc(/C=C(\C#N)C(=O)NCc2ccccc2)ccc1OCc1ccc(C(=O)O)cc1 | inconclusive: 18.4 µM [activator, single point] | 
Cn1cccc1/C=C1\SC(=Nc2ccc(O)cc2)NC1=O | active: 0.461 µM | 
COC(=O)c1sccc1NC(=O)NC1CCCCC1 | inconclusive: 18.4 µM [activator, single point] | 
Cc1ccc(OCC(=O)Nc2ccccc2Sc2ccccc2)c([N+](=O)[O-])n1 |  | inactive: 1.92%
Cc1c(NC(=O)Nc2cccc(F)c2)c(=O)n(-c2ccccc2)n1C |  | inactive: 5.03%
Cc1ccc(Nc2nc(Cl)nc(NC3CCCCC3)n2)cc1 | inconclusive: 20.6 µM [activator, single point] | 
C/C(=N\NC(=O)c1ccc(COc2ccccc2)cc1)c1ccncc1 | inconclusive: 11.6 µM [activator, single point] | 

Two entries picked at random from the list so far:
Compound | Potency | re-replication activation
CC(=O)Nc1ccc(S(=O)(=O)NCc2cccnc2)cc1 | inconclusive: 32.6 µM [activator, partial curve, poor fit] | 
CN(CC(=O)NC1CCCCCC1)S(=O)(=O)c1ccc(Br)cc1 |  | inactive: 16.2%
